Paper PMC8384837
Numbering of substitutions follows the chain as printed. The list shows a part of the results. For some of these results: At the low end of the ranking the order means little.

Columns and labels:
Settings in all cases: yeast three-hybrid, YBZ-1, SC-Leu-His + 0.5 mM 3-AT, 4 days
[1] = molecular target: T1, PUM1 PUF domain R3-EYE C935E + R936Y + Q939E (Homo sapiens) (UniProt Q14671)
T1 sequence: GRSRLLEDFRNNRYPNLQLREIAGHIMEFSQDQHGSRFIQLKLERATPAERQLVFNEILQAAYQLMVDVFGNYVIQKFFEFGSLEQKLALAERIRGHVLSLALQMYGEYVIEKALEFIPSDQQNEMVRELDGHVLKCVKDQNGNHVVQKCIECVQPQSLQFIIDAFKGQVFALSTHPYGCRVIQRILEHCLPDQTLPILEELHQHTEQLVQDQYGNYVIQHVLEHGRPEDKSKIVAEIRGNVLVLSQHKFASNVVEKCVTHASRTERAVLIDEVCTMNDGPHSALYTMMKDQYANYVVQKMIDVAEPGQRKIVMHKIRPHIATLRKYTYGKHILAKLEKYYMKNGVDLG

[2] = molecular target: T2, PUM1 PUF domain R3-FCA C935F + R936C + Q939A (UniProt Q14671)
T2 sequence: T1 sequence with E108F, Y109C, E112A

[3] = molecular target: T3, PUM1 PUF domain R3-FCG C935F + R936C + Q939G (UniProt Q14671)
T3 sequence: T1 sequence with E108F, Y109C, E112G

[4] = molecular target: T4, PUM1 PUF domain R3-FFG C935F + R936F + Q939G (UniProt Q14671)
T4 sequence: T1 sequence with E108F, Y109F, E112G

[5] = molecular target: T5, PUM1 PUF domain R3-FFV C935F + R936F + Q939V (UniProt Q14671)
T5 sequence: T1 sequence with E108F, Y109F, E112V

[6] = molecular target: T6, PUM1 PUF domain R3-FIA C935F + R936I + Q939A (Homo sapiens) (UniProt Q14671)
T6 sequence: T1 sequence with E108F, Y109I, E112A

[7] = molecular target: T7, PUM1 PUF domain R3-FIG C935F + R936I + Q939G (UniProt Q14671)
T7 sequence: T1 sequence with E108F, Y109I, E112G

[8] = molecular target: T8, PUM1 PUF domain R3-FRA C935F + Q939A (UniProt Q14671)
T8 sequence: T1 sequence with E108F, Y109R, E112A

[9] = molecular target: T9, PUM1 PUF domain R3-FRG C935F + Q939G (UniProt Q14671)
T9 sequence: T1 sequence with E108F, Y109R, E112G

[10] = molecular target: T10, PUM1 PUF domain R3-FRM C935F + Q939M (UniProt Q14671)
T10 sequence: T1 sequence with E108F, Y109R, E112M

[11] = molecular target: T11, PUM1 PUF domain R3-FRP C935F + Q939P (UniProt Q14671)
T11 sequence: T1 sequence with E108F, Y109R, E112P

[12] = molecular target: T12, PUM1 PUF domain R3-FRR C935F + Q939R (Homo sapiens) (UniProt Q14671)
T12 sequence: T1 sequence with E108F, Y109R, E112R

[13] = molecular target: T13, PUM1 PUF domain R3-FRW C935F + Q939W (UniProt Q14671)
T13 sequence: T1 sequence with E108F, Y109R, E112W

[14] = molecular target: T14, PUM1 PUF domain R3-FSG C935F + R936S + Q939G (UniProt Q14671)
T14 sequence: T1 sequence with E108F, Y109S, E112G

[15] = molecular target: T15, PUM1 PUF domain R3-FSN C935F + R936S + Q939N (UniProt Q14671)
T15 sequence: T1 sequence with E108F, Y109S, E112N

[16] = molecular target: T16, PUM1 PUF domain R3-FSR C935F + R936S + Q939R (UniProt Q14671)
T16 sequence: T1 sequence with E108F, Y109S, E112R

[17] = molecular target: T17, PUM1 PUF domain R3-FSS C935F + R936S + Q939S (UniProt Q14671)
T17 sequence: T1 sequence with E108F, Y109S, E112S

[18] = molecular target: T18, PUM1 PUF domain R3-FWR C935F + R936W + Q939R (Homo sapiens) (UniProt Q14671)
T18 sequence: T1 sequence with E108F, Y109W, E112R

[19] = molecular target: T19, PUM1 PUF domain R3-FWS C935F + R936W + Q939S (UniProt Q14671)
T19 sequence: T1 sequence with E108F, Y109W, E112S

[20] = molecular target: T20, PUM1 PUF domain R3-FYG C935F + R936Y + Q939G (Homo sapiens) (UniProt Q14671)
T20 sequence: T1 sequence with E108F, E112G

[21] = molecular target: T21, PUM1 PUF domain R3-GCD C935G + R936C + Q939D (UniProt Q14671)
T21 sequence: T1 sequence with E108G, Y109C, E112D

[22] = molecular target: T22, PUM1 PUF domain R3-GCE C935G + R936C + Q939E (Homo sapiens) (UniProt Q14671)
T22 sequence: T1 sequence with E108G, Y109C

[23] = molecular target: T23, PUM1 PUF domain R3-GCK C935G + R936C + Q939K (UniProt Q14671)
T23 sequence: T1 sequence with E108G, Y109C, E112K

[24] = molecular target: T24, PUM1 PUF domain R3-GCR C935G + R936C + Q939R (UniProt Q14671)
T24 sequence: T1 sequence with E108G, Y109C, E112R

[25] = molecular target: T25, PUM1 PUF domain R3-GCW C935G + R936C + Q939W (UniProt Q14671)
T25 sequence: T1 sequence with E108G, Y109C, E112W

[26] = molecular target: T26, PUM1 PUF domain R3-GFF C935G + R936F + Q939F (UniProt Q14671)
T26 sequence: T1 sequence with E108G, Y109F, E112F

[27] = molecular target: T27, PUM1 PUF domain R3-GFL C935G + R936F + Q939L (UniProt Q14671)
T27 sequence: T1 sequence with E108G, Y109F, E112L

[28] = molecular target: T28, PUM1 PUF domain R3-GFP C935G + R936F + Q939P (UniProt Q14671)
T28 sequence: T1 sequence with E108G, Y109F, E112P

[29] = molecular target: T29, PUM1 PUF domain R3-GHG C935G + R936H + Q939G (UniProt Q14671)
T29 sequence: T1 sequence with E108G, Y109H, E112G

[30] = molecular target: T30, PUM1 PUF domain R3-GIR C935G + R936I + Q939R (Homo sapiens) (UniProt Q14671)
T30 sequence: T1 sequence with E108G, Y109I, E112R

[31] = molecular target: T31, PUM1 PUF domain R3-GPC C935G + R936P + Q939C (UniProt Q14671)
T31 sequence: T1 sequence with E108G, Y109P, E112C

[32] = molecular target: T32, PUM1 PUF domain R3-GPD C935G + R936P + Q939D (UniProt Q14671)
T32 sequence: T1 sequence with E108G, Y109P, E112D

[33] = molecular target: T33, PUM1 PUF domain R3-GPF C935G + R936P + Q939F (UniProt Q14671)
T33 sequence: T1 sequence with E108G, Y109P, E112F

[34] = molecular target: T34, PUM1 PUF domain R3-GPS C935G + R936P + Q939S (UniProt Q14671)
T34 sequence: T1 sequence with E108G, Y109P, E112S

[35] = molecular target: T35, PUM1 PUF domain R3-GPV C935G + R936P + Q939V (UniProt Q14671)
T35 sequence: T1 sequence with E108G, Y109P, E112V

[36] = molecular target: T36, PUM1 PUF domain R3-GPW C935G + R936P + Q939W (UniProt Q14671)
T36 sequence: T1 sequence with E108G, Y109P, E112W

[37] = molecular target: T37, PUM1 PUF domain R3-GRA C935G + Q939A (UniProt Q14671)
T37 sequence: T1 sequence with E108G, Y109R, E112A

[38] = molecular target: T38, PUM1 PUF domain R3-GRC C935G + Q939C (UniProt Q14671)
T38 sequence: T1 sequence with E108G, Y109R, E112C

[39] = molecular target: T39, PUM1 PUF domain R3-GRD C935G + Q939D (UniProt Q14671)
T39 sequence: T1 sequence with E108G, Y109R, E112D

[40] = molecular target: T40, PUM1 PUF domain R3-GRF C935G + Q939F (UniProt Q14671)
T40 sequence: T1 sequence with E108G, Y109R, E112F

GGCUAGAACUAGUGGAUCCCCCGGCGCCCGGCGGCUCGAGCCCGGGUAAGUGUAACUAGUCUGCAUGCCGCCGGGCGCCAUGCCUGCAGGUCGACUCUAGAAAACAUG
binding signal (log2 enrichment (interaction score)) [1]: 0.56 | binding signal (log2 enrichment (interaction score)) [2]: < -8.54 | binding signal (log2 enrichment (interaction score)) [3]: -3.33 | binding signal (log2 enrichment (interaction score)) [4]: -3.91 | binding signal (log2 enrichment (interaction score)) [5]: -5.23 | binding signal (log2 enrichment (interaction score)) [6]: -2.93 | binding signal (log2 enrichment (interaction score)) [7]: < -8.98 | binding signal (log2 enrichment (interaction score)) [8]: < -7.44 | binding signal (log2 enrichment (interaction score)) [9]: -7.47 | binding signal (log2 enrichment (interaction score)) [10]: < -7.12 | binding signal (log2 enrichment (interaction score)) [11]: < -7.49 | binding signal (log2 enrichment (interaction score)) [12]: 0.49 | binding signal (log2 enrichment (interaction score)) [13]: -7.63 | binding signal (log2 enrichment (interaction score)) [14]: < -9.64 | binding signal (log2 enrichment (interaction score)) [15]: < -6.49 | binding signal (log2 enrichment (interaction score)) [16]: -6.57 | binding signal (log2 enrichment (interaction score)) [17]: < -7.84 | binding signal (log2 enrichment (interaction score)) [18]: -0.93 | binding signal (log2 enrichment (interaction score)) [19]: -2.88 | binding signal (log2 enrichment (interaction score)) [20]: -3.6 | binding signal (log2 enrichment (interaction score)) [21]: < -8.32 | binding signal (log2 enrichment (interaction score)) [22]: -1.12 | binding signal (log2 enrichment (interaction score)) [23]: < -7.61 | binding signal (log2 enrichment (interaction score)) [24]: -3.41 | binding signal (log2 enrichment (interaction score)) [25]: < -9.77 | binding signal (log2 enrichment (interaction score)) [26]: < -7.94 | binding signal (log2 enrichment (interaction score)) [27]: < -9.4 | binding signal (log2 enrichment (interaction score)) [28]: < -9 | binding signal (log2 enrichment (interaction score)) [29]: < -7.85 | binding signal (log2 enrichment (interaction score)) [30]: -3.06 | binding signal (log2 enrichment (interaction score)) [31]: < -7.73 | binding signal (log2 enrichment (interaction score)) [32]: < -8.82 | binding signal (log2 enrichment (interaction score)) [33]: < -8.42 | binding signal (log2 enrichment (interaction score)) [34]: -5.42 | binding signal (log2 enrichment (interaction score)) [35]: -2.41 | binding signal (log2 enrichment (interaction score)) [36]: < -8.74 | binding signal (log2 enrichment (interaction score)) [37]: < -10.7 | binding signal (log2 enrichment (interaction score)) [38]: < -9.99 | binding signal (log2 enrichment (interaction score)) [39]: < -9.06 | binding signal (log2 enrichment (interaction score)) [40]: < -9.89
